# Measurements reported in PubChem BioAssay AID504804 (Drosophila RNAi Screening Center, 2011).
# Aim: 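dsRNAs that improve Kc cell survival under doxorubicin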 (primary screen)
# Cells: Drosophila Kc cells
# Knock-down reagent: long dsRNA against Drosophila genes, 0.5 µg dsRNA per well
# Timing: 96 h (48 h knock-down, then 48 h drug)
# Challenge: doxorubicin 5 µg/ml for 48 h, added 48 h after dsRNA
# Detection: 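Luminescent ATP counts per replicate, not normalised, reflecting viable cells after 48 h dsRNA knock-down followed by 48 h of 5 µg/ml doxorubicin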
# Reading the numbers: raw ATP luminescence: higher = more viable cells, protection from doxorubicin
# Hit rule: 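Active when both duplicate wells lie at least 2 SD above the plate mean and protection is confirmed by rescreening and independent dsRNAs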
# The screen tested about 19,000 reagents; below is a random part of those with a known target gene and a result. In the full data, 47 (0.25%) are marked active. 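Signals are raw, not normalised; exact z-scores behind calls not deposited; actives needed confirmation, so some wells reaching 2 SD are inactive.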 Names joined by + are all predicted targets of the reagent.
target,PubChem SID,SD above plate mean,"raw ATP luminescence, replicate 1","raw ATP luminescence, replicate 2",Outcome
Elba1,SID104180068,,25577,33783,inactive
CG14024,SID104180660,,2.85e5,2.55e5,inactive
CG14024,SID104182146,,1.15e5,57307,inactive
CG12229,SID104189660,,38577,38920,inactive
CG33770,SID104191509,,62803,42183,inactive
CG33969 + fbl,SID104191678,,66613,61603,inactive
CG16826,SID104182319,,36567,57477,inactive
CG14712,SID104194727,,49657,23333,inactive
CG13063,SID104189738,,42087,36900,inactive
CG14331,SID104194602,,82540,73080,inactive
Frq1,SID104199753,,3.53e5,3.45e5,inactive
Osi21,SID104182200,,40227,48420,inactive
RN-tre,SID104187313,2 to 3 SD above plate mean,,,inactive
CG4842,SID104190245,,56523,51563,inactive
Obp99b,SID104196056,,39160,34160,inactive
CG14671,SID104192049,,68923,60860,inactive
Mal-A1,SID104187253,,51647,65417,inactive
Ugt317A1,SID104184262,,58047,54657,inactive
mRpL47,SID104196619,,57123,53793,inactive
CG9517 (retired record),SID104199984,,3.55e5,3.21e5,inactive
CG9517 (retired record),SID104199985,,3.13e5,2.73e5,inactive
Diedel3,SID104199336,,3.64e5,3.12e5,inactive
Slob,SID104182088,,24750,23437,inactive
CG9101,SID104199944,,1.86e5,2.13e5,inactive
CG6441,SID104182749,,24667,21617,inactive
blot,SID104189277,,92983,91340,inactive
blot,SID104191120,,32453,24073,inactive
Jwa,SID104181840,,78850,45080,inactive
kmr,SID104192778,,2.62e5,2.55e5,inactive
kmr,SID104194619,,1.20e5,77660,inactive
kmr,SID104194620,,94310,64210,inactive
kmr,SID104196264,,44153,31417,inactive
jus,SID104194653,,13310,18030,inactive
jus,SID104194654,,28930,47780,inactive
CG3448,SID104190160,,92997,96130,inactive
ATPsynO,SID104196572,,67223,33453,inactive
cpa,SID104183872,,58863,54233,inactive
tHMG1,SID104195973,,43220,45290,inactive
CG6610,SID104190466,,86577,81987,inactive
NC2beta,SID104181687,,1.03e5,56533,inactive
CG4789,SID104199710,,3.61e5,3.23e5,inactive
mRpS18B,SID104181899,,68020,78197,inactive

Already shown: an excerpt of the list.
target,PubChem SID,SD above plate mean,"raw ATP luminescence, replicate 1","raw ATP luminescence, replicate 2",Outcome
CG4842,SID104190245,,56523,51563,inactive
Obp99b,SID104196056,,39160,34160,inactive
CG14671,SID104192049,,68923,60860,inactive
Mal-A1,SID104187253,,51647,65417,inactive
Ugt317A1,SID104184262,,58047,54657,inactive
mRpL47,SID104196619,,57123,53793,inactive
CG9517 (retired record),SID104199984,,3.55e5,3.21e5,inactive
CG9517 (retired record),SID104199985,,3.13e5,2.73e5,inactive
Diedel3,SID104199336,,3.64e5,3.12e5,inactive
Slob,SID104182088,,24750,23437,inactive
CG9101,SID104199944,,1.86e5,2.13e5,inactive
CG6441,SID104182749,,24667,21617,inactive
blot,SID104189277,,92983,91340,inactive
blot,SID104191120,,32453,24073,inactive

Additional results:
target,PubChem SID,SD above plate mean,"raw ATP luminescence, replicate 1","raw ATP luminescence, replicate 2",Outcome
I-t,SID104196505,,47767,63140,inactive
CG12310,SID104189670,,61643,54113,inactive
Cp7Fb,SID104197826,,38640,39300,inactive
CG10898,SID104194071,,57417,28267,inactive
CG7202,SID104191610,,67447,62973,inactive
TM9SF2,SID104182989,,76480,85237,inactive
CG5937,SID104198184,,55960,54020,inactive
CG42594,SID104197845,,11610,12230,inactive
CG42594,SID104198200,,56010,56170,inactive
Gss1 + Gss2,SID104199800,,3.59e5,3.13e5,inactive
CG17159 + CG17162,SID104200691,,2.69e5,3.25e5,inactive
CG17159 + CG17162,SID104200692,,3.16e5,3.23e5,inactive
grass,SID104195703,,71290,37520,inactive
Hibch,SID104195497,,64970,23190,inactive
CG8119,SID104199875,,3.19e5,2.96e5,inactive
CG32040,SID104188773,,1.55e5,1.87e5,inactive
CG34266,SID104188115,,86450,83683,inactive
CG14302,SID104194573,,53620,50790,inactive
CG5302 (retired record),SID104195556,,69150,61110,inactive
CG5302 (retired record),SID104195557,,76230,61450,inactive
Apoltp,SID104182300,,1.15e5,69147,inactive
Ilp7,SID104197687,,30910,42900,inactive
Gld2,SID104195655,,16790,19000,inactive
CG32488,SID104188341,,2.47e5,2.63e5,inactive
Aps,SID104190421,,1.10e5,77050,inactive
Wnt6,SID104182587,,44960,30927,inactive
TwdlZ,SID104198946,,2.02e5,2.00e5,inactive
Clk,SID104190909,,73893,75593,inactive
CG33922,SID104179842,,3.22e5,3.45e5,inactive
rin,SID104196837,,36110,28510,inactive
Alp10,SID104189541,,69740,71997,inactive
mri,SID104188051,,47600,50820,inactive
CG11638,SID104197959,,43200,41830,inactive
CG11638,SID104198432,,43130,53810,inactive
CG11597,SID104189639,,43847,42917,inactive
Lcp65Aa,SID104191001,,86533,83220,inactive
Uqcc1 + CG9948,SID104189482,,58373,74220,inactive
Alp7,SID104184147,,38260,44123,inactive
CG8500,SID104196226,,45997,51897,inactive
OXA1L,SID104189464,,39773,38637,inactive
Hex-A,SID104198051,,2.94e5,3.00e5,inactive
Orai,SID104185476,,1.46e5,1.32e5,inactive
